Measurements from “University of Dundee, Small-Polar-MMV Screening Library” (2021), ChEMBL document CHEMBL3988442.

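Whole-cell assay for inhibitors of Mycobacterium tuberculosis growth, labelled Cornell in the record; the read-out is not stated. The concentration is filed as 10 mM, unlikely as a test dose, so the dose is not known. Higher means stronger inhibition (inferred from two other growth screens of the library). Of about 53,000 compounds tested this way, about 900 (1.7%) reached 50% or more in at least one test.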

The filed quantity is “Percent Effect” (%).
The controls that fix the scale are not given in the record; negative values are as filed.
Compounds were drawn at random from those tested, without regard to their results.

{"compound": "CC(C)c1cccc(CSc2nnc(CN3CCCC3=O)o2)n1", "percent effect": 12.36}
{"compound": "CCn1c(Cn2cncn2)nnc1C1CCN(Cc2ccncc2)CC1", "percent effect": 19.35}
{"compound": "Cc1nc(COc2ccc(CNCC3CN(C)CCO3)cc2)cs1", "stereo": "stereo not given", "percent effect": -26.76}
{"compound": "CCN(CC)C(=O)CCc1c(C)nc2cc(O)nn2c1C", "percent effect": 7.759}
{"compound": "COc1cc2cc(C)c(SCCN3CCCCC3)nc2cc1OC.Cl", "percent effect": 32.55}
{"compound": "Cc1nc(CN(C)C2CCN(Cc3nc4ccccc4s3)C2)no1", "stereo": "stereo not given", "percent effect": 19.38}
{"compound": "CCc1ccccc1OCCN1CCC(NS(C)(=O)=O)CC1", "percent effect": 22.41}
{"compound": "[H][C@@]12CN(C(=O)c3ccc(F)cc3)C[C@]1([H])CN(c1ncccn1)C2", "percent effect": -47.2}
{"compound": "O=C(O)CSC1CCc2ccccc2NC1=O", "stereo": "stereo not given", "percent effect": -41.05}
{"compound": "COCCCN(C)C(=O)c1cccc(Nc2cnccn2)c1", "percent effect": -18.74}
{"compound": "O=C(CCOc1cccc(F)c1)N1CCCC1Cn1cccn1", "stereo": "stereo not given", "percent effect": -7.892}
{"compound": "CCn1nc(C)c(CN(CCOC)C(=O)c2cnc(C)nc2O)c1C", "percent effect": -58.47}
{"compound": "Cc1sc(-c2ccco2)nc1C(=O)N1CCCC1Cn1cccn1", "stereo": "stereo not given", "percent effect": 5.712}
{"compound": "O=C(NC1CC1)C1CCCN(c2cccc(C(F)(F)F)n2)C1", "stereo": "stereo not given", "percent effect": 1.639}
{"compound": "CC(=O)N1N=C(c2ccco2)OC1C(=O)NCC(C)C", "stereo": "stereo not given", "percent effect": -9.226}
{"compound": "CC(=O)c1cccc(NC(=O)c2cnc(N3CCN(C)CC3)nc2C)c1", "percent effect": -11.59}
{"compound": "CSCCCN1CCN(c2ccc(Cl)cn2)CC1", "percent effect": 62.54}
{"compound": "CC(=O)N1CCC(NC(=O)Cc2csc(C(C)(C)C)n2)CC1", "percent effect": 17.01}
{"compound": "Cc1ccc(CN(Cc2ccncc2)C2CC(C)(C)NC(C)(C)C2)o1.O=C(O)CC(O)(CC(=O)O)C(=O)O", "percent effect": -3.867}
{"compound": "[H][C@@]12C[C@@H](C(=O)Nc3cnccn3)CN(S(C)(=O)=O)[C@]1([H])CCO2", "percent effect": -27.36}
{"compound": "O=C1CC(C(=O)NCCN2CCOC2=O)c2cc(F)ccc2N1", "stereo": "stereo not given", "percent effect": 14.41}
{"compound": "CC(C)Cc1cc(NC(=O)c2ccc[nH]2)n(C)n1", "percent effect": 8.45}
{"compound": "Cc1ccc(N2CCC(Nc3ccc4nnc(C)n4n3)CC2)nc1", "percent effect": 12.26}
{"compound": "Cn1nc2c(cc1=O)CN(CC(=O)Nc1ccc(Cl)cn1)CC2", "percent effect": 10.91}
{"compound": "CC(C)NC(=O)NC[C@H]1OC[C@@H](NCc2ccccc2F)[C@@H]1O", "percent effect": 2.839}
{"compound": "CCC(OC)C(=O)NCc1cc2n(n1)CCCN(C1CCCCC1)C2", "stereo": "stereo not given", "percent effect": -3.803}
{"compound": "CC(=O)N1CCC(c2nccnc2CNC(=O)c2cc[nH]n2)CC1", "percent effect": -11.98}
{"compound": "Cc1cccc(N2CCCC3(C2)CN(c2nncs2)CCO3)c1", "stereo": "stereo not given", "percent effect": 4.052}
{"compound": "CCOc1cccc(CNc2cncc(-n3cccn3)n2)c1", "percent effect": 46.17}
{"compound": "CCc1ccc(CN2CCNC(C(=O)N3CCN(C)CC3)C2)nc1", "stereo": "stereo not given", "percent effect": -30.37}
{"compound": "CCOc1ccccc1C(CC(=O)N(C)c1ccccc1)NC(C)=O", "stereo": "stereo not given", "percent effect": -21.3}
{"compound": "CCc1nc(C2CCCN2Cc2nc(C(C)(C)C)no2)no1", "stereo": "stereo not given", "percent effect": -20.34}
{"compound": "COCc1cc(N2CCN(Cc3ccncc3)CC2)n2nccc2n1", "percent effect": 13.04}
{"compound": "Cc1nsc(NC(=O)N2CCC(C(C)(C)O)CC2)n1", "percent effect": -11.04}
{"compound": "CN(C)c1cccc(C(=O)N2CCCc3cc(OC(F)(F)F)ccc32)c1", "percent effect": 29.55}
{"compound": "Cc1ccccc1-c1cc(NC(=O)NC2CCC(O)CC2)n(CCO)n1", "stereo": "stereo not given", "percent effect": 4.311}
{"compound": "Cc1cnc(N2CCc3c(cnc(C)c3C(=O)O)C2)nc1.O=C(O)C(F)(F)F", "percent effect": 32.17}
{"compound": "CCCC(C)C(=O)N1CCC(n2cccc2C(=O)OC)CC1", "stereo": "stereo not given", "percent effect": 26.55}
{"compound": "O=C(c1ccc[nH]1)N1CCN(CC2CCOc3ccccc3C2)CC1", "stereo": "stereo not given", "percent effect": -20.69}
{"compound": "COCc1csc(NC(=O)NCc2ncccc2C)n1", "percent effect": 0.3508}

For reference, 5 entries once more:

compound,percent effect
COc1cc2cc(C)c(SCCN3CCCCC3)nc2cc1OC.Cl,32.55
COCc1csc(NC(=O)NCc2ncccc2C)n1,0.3508
CC(=O)c1cccc(NC(=O)c2cnc(N3CCN(C)CC3)nc2C)c1,-11.59
CCOc1ccccc1C(CC(=O)N(C)c1ccccc1)NC(C)=O (stereo not given),-21.3
CCc1ccc(CN2CCNC(C(=O)N3CCN(C)CC3)C2)nc1 (stereo not given),-30.37